In this series the test system is PBO-5/PBO-8 receptors. Kind of series: Two-electrode voltage clamp of Xenopus oocytes coinjected with PBO-5 and PBO-8 cRNA. Format: cell-based, C. elegans. Here is the method: Capped RNA was prepared using the T7 mMessage mMachine kit (Ambion). Xenopus oocytes were collected and coinjected with 25 ng each of PBO-5 and PBO-8 cRNA and two-electrode voltage clamp recordings were performed 3-5 days post-injection. The standard bath solution for dose-response and control I-V experiments was Ringer's (in mM): 115 NaCl, 1.8 […], 10 Bis-Tris Propane (pH 7.4 Acetic acid). For dose-response experiments, each oocyte was subjected to a 5 second application of test pH (7.0 - 5.0) with 2 minutes of pH 7.4 wash between test applications.
Ion selectivity experiments: All points are responses to test pulse applications of pH 6.8 for 5 seconds. The reversal potential of PBO-5/PBO-8 expressing oocytes were first determined in standard Ringer's (in mM): 115 NaCl, 1.0 CaCl2, 10 Bis-Tris Propane (pH 7.4, acetic acid). For chloride permeability a simplified solution was used, chloride-free (in mM): 115 Na^+ gluconate, 1.0 CaCl2, 10 Bis-Tris Propane (pH 7.4 acetic acid). For Na^+ permeability a simplified solution was used, Na^+ free (in mM): 115 mM N-methyl D-glucamine (NMDG), 1.8 CaCl2, 10 Bis-Tris Propane (pH 7.4 acetic acid)). All solutions were brought to pH by addition of NaOH or acetic acid. To determine K^+ permeability, I-V experiments were performed in K^+ Ringer's (in mM): 115 K^+-gluconate, 1.0 CaCl2, 10 Bis-Tris Propane (pH=7.4 acetic acid). To determine Ca^2+ permeability extracellular Na^+ was lowered to 90 mM and extracellular CaCl2 was increased to 3 mM and 10 mM, compare to 1 mM Ca^2+ control. To better resolve calcium permeability, the Na^+ free solution was used except CaCl2 was increased ten-fold, 18 mM CaCl2 (in mM): 115 NMDG, 18 CaCl2, 10 Bis-Tris Propane, (pH 7.4 acetic acid). Osmolarity was measured for each solution and was maintained at 240 mOsm by the addition of sucrose. All recordings were done at room temperature. We used 3M KCl filled electrodes with a resistance between 1-3 MΩ. […]
On the technique in general: In two-electrode clamp one electrode senses voltage and the other passes current.

Several values for one entry are separate records, joined by “and”; a condition that tells them apart may be missing. Identical values can stand only once.

Data on one compound can be found in US8232063B2, “H+-gated ion channel” (University of Utah Research Foundation, priority 2004, dated 2012).

Consider `[1H+]` [H^+], for which the Hill coefficient (commonly a measure of the steepness of the concentration-response curve) by setting is: (1 mM Ca2+ control conditions) 6; (10 mM Ca2+ test conditions) 4; (voltage-clamped at -60 mV, test pH 5 seconds, standard Ringer's, n=18) 9+0.66 and 9±0.66.
